Experimental data reported in patent US4789478A, “Conversion of inorganic ions to metal sulfides by microorganisms” (priority 1987, dated 1988).

Test system: Citrobacter freundii and Desulfomonas
Details: 32° C., aerobic, mean ± SD, 3 experiments

[Cl][Hg][Cl] [HgCl2, mercuric chloride]
% recovery in the filtrate (incubation time 0 h): 90 ± 12% | % recovery in the filtrate (incubation time 6 h): 50% | % recovery in the filtrate (incubation time 12 h): 15 ± 6% | % recovery in the filtrate (incubation time 24 h): 6 ± 1% | % recovery in the filtrate (incubation time 48 h): 5 ± 3%

Read-outs that look alike come from different tables or passages of the source.
